These results are taken from publication PMC12120113.

The chains behind the UniProt entries cited, without tags or fusion partners.
UniProt P46937: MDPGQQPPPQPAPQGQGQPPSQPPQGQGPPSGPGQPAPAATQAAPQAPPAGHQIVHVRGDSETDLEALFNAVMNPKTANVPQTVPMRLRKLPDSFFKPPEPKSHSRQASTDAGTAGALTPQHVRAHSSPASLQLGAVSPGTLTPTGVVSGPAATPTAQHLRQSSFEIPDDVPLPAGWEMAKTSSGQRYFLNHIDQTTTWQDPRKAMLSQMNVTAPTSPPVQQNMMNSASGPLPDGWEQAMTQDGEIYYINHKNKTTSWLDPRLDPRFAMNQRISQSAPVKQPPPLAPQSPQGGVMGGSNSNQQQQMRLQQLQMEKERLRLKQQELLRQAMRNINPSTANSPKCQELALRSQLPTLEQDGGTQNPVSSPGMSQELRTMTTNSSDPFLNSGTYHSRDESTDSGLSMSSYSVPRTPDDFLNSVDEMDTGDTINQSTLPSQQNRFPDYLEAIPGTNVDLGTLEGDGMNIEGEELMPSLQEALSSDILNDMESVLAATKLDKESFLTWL

Results are given in words; binding and its absence hold for the method and conditions named. In cells and extracts the contact can be indirect. A yes stands for co-enrichment or nearness to the bait. Other partners may have been found. Where a sequence is shown, tags or fusion partners need not be part of it.

This assay has as its target T1, Flag-VCPIP1 (valosin-containing protein-interacting protein 1), overexpressed in PANC-1 cells (UniProt Q96JH7).
T1 sequence: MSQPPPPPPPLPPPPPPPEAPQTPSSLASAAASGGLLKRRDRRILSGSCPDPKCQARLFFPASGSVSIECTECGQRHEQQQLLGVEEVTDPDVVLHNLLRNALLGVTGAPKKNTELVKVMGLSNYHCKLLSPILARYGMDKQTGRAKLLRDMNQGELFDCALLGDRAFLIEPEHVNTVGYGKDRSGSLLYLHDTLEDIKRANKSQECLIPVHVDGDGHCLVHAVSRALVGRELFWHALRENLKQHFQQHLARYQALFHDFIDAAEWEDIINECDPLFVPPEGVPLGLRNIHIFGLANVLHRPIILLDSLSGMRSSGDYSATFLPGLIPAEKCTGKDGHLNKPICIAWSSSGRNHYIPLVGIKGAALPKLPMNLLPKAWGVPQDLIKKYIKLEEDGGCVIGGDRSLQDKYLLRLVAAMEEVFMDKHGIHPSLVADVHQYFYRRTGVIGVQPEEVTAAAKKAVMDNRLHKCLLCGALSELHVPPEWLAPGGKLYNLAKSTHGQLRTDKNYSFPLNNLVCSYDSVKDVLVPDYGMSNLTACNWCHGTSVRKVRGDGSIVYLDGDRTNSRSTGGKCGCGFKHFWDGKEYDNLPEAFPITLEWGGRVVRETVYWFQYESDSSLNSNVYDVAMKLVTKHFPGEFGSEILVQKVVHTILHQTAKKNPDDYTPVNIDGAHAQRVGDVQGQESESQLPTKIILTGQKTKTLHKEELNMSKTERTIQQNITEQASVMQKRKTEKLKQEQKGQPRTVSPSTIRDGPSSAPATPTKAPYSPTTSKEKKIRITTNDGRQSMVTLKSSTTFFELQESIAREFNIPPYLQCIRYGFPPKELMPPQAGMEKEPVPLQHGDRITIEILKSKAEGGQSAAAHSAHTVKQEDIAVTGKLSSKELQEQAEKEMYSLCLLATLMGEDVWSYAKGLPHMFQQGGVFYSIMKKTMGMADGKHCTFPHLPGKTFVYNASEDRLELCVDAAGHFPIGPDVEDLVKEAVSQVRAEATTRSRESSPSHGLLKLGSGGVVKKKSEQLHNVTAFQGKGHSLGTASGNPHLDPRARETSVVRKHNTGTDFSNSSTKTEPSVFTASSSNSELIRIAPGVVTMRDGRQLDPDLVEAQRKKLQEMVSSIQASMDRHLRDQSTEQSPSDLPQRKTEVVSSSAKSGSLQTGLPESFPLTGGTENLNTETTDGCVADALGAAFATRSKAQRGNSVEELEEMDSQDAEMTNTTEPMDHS
The experiment in a line: affinity purification with mass spectrometry; Flag-VCPIP1 overexpressed in PANC-1 cells; lysate immunoprecipitated with anti-Flag antibody or isotype IgG; SDS-PAGE, Coomassie stain, band excised, trypsin digest, LC-MS/MS.

For “YAP, endogenous in PANC-1 cells (from UniProt P46937 1-504)”, the binding result was “binds”.
